# Results reported in the supplement of paper PMC8728848.
# Some of the results follow.
# Tests used:
# Assay in all cases: glycan array binding signal (z-score within array); higher = stronger binding
# Details in all cases: glycan notation: IUPAC condensed, linker removed
# Fuc(a1-2)Gal = target: Fuc(a1-2)Gal
# How it was run: (§1)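 Columns mapping to the same glycan were averaged after glycan names were converted to IUPAC-condensed notation. The data come from 3228 arrays in the Consortium for Functional Glycomics database, limited to those with an available protein sequence. Binding is reported as a within-array Z-score averaged across arrays of one protein sequence and across linkers.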
# Fuc(a1-2)Gal(b1-3)GalNAc = target: Fuc(a1-2)Gal(b1-3)GalNAc
# How it was run: as §1
# [1] = target: Fuc(a1-2)Gal(b1-3)GalNAc(a1-3)[Fuc(a1-2)]Gal(b1-4)Glc
# How it was run: as §1
# [2] = target: Fuc(a1-2)Gal(b1-3)GalNAc(a1-3)[Fuc(a1-2)]Gal(b1-4)GlcNAc
# How it was run: as §1
# [3] = target: Fuc(a1-2)Gal(b1-3)GalNAc(b1-3)Gal
# How it was run: as §1
# [4] = target: Fuc(a1-2)Gal(b1-3)GalNAc(b1-3)Gal(a1-4)Gal(b1-4)Glc
# How it was run: as §1
# [5] = target: Fuc(a1-2)Gal(b1-3)GalNAc(b1-4)[Neu5Ac(a2-3)]Gal(b1-4)Glc
# How it was run: as §1
# Fuc(a1-2)Gal(b1-3)GlcNAc = target: Fuc(a1-2)Gal(b1-3)GlcNAc
# How it was run: as §1
# [6] = target: Fuc(a1-2)Gal(b1-3)GlcNAc(b1-2)Man(a1-3)[Fuc(a1-2)Gal(b1-3)GlcNAc(b1-2)Man(a1-6)]Man(b1-4)GlcNAc(b1-4)GlcNAc
# How it was run: as §1
# [7] = target: Fuc(a1-2)Gal(b1-3)GlcNAc(b1-2)Man(a1-3)[Fuc(a1-2)Gal(b1-3)GlcNAc(b1-2)Man(a1-6)]Man(b1-4)GlcNAc(b1-4)[Fuc(a1-6)]GlcNAc
# How it was run: as §1
# [8] = target: Fuc(a1-2)Gal(b1-3)GlcNAc(b1-3)Gal(b1-4)Glc
# How it was run: as §1
# [9] = target: Fuc(a1-2)Gal(b1-3)GlcNAc(b1-3)GalNAc
# How it was run: as §1
# [10] = target: Fuc(a1-2)Gal(b1-3)GlcNAc(b1-3)[Fuc(a1-2)Gal(b1-3)GlcNAc(b1-6)]GalNAc
# How it was run: as §1
# [11] = target: Fuc(a1-2)Gal(b1-3)GlcNAc(b1-3)[Gal(b1-4)GlcNAc(b1-6)]Gal(b1-4)Glc
# How it was run: as §1
# [12] = target: Fuc(a1-2)Gal(b1-3)GlcNAc(b1-3)[Neu5Ac(a2-6)Gal(b1-4)GlcNAc(b1-6)]Gal(b1-4)Glc
# How it was run: as §1
# [13] = target: Fuc(a1-2)Gal(b1-3)GlcNAc6S
# How it was run: as §1
# [14] = target: Fuc(a1-2)Gal(b1-3)[Fuc(a1-4)]GlcNAc
# How it was run: as §1
# [15] = target: Fuc(a1-2)Gal(b1-3)[Fuc(a1-4)]GlcNAc(b1-2)Man(a1-3)[Fuc(a1-2)Gal(b1-3)[Fuc(a1-4)]GlcNAc(b1-2)Man(a1-3)]Man(b1-4)GlcNAc(b1-4)GlcNAc
# How it was run: as §1
# [16] = target: Fuc(a1-2)Gal(b1-3)[Fuc(a1-4)]GlcNAc(b1-2)Man(a1-3)[Fuc(a1-2)Gal(b1-3)[Fuc(a1-4)]GlcNAc(b1-2)Man(a1-6)]Man(b1-4)GlcNAc(b1-4)[Fuc(a1-6)]GlcNAc(b1-4)[Fuc(a1-6)]GlcNAc
# How it was run: as §1
# [17] = target: Fuc(a1-2)Gal(b1-3)[Fuc(a1-4)]GlcNAc(b1-3)[Fuc(a1-3)[Gal(b1-4)]GlcNAc(b1-6)]Gal(b1-4)Glc
# How it was run: as §1
# [18] = target: Fuc(a1-2)Gal(b1-3)[Fuc(a1-4)]GlcNAc(b1-3)[Gal(b1-4)GlcNAc(b1-6)]Gal(b1-4)Glc
# How it was run: as §1
# [19] = target: Fuc(a1-2)Gal(b1-4)Fuc(a1-3)]GlcNAc(b1-2)Man(a1-3)[Fuc(a1-2)Gal(b1-4)[Fuc(a1-3)]GlcNAc(b1-2)Man(a1-6)]Man(b1-4)GlcNAc(b1-4)GlcNAc
# How it was run: as §1
# Fuc(a1-2)Gal(b1-4)Glc = target: Fuc(a1-2)Gal(b1-4)Glc
# How it was run: as §1
# Fuc(a1-2)Gal(b1-4)Glc6S = target: Fuc(a1-2)Gal(b1-4)Glc6S
# How it was run: as §1
# Fuc(a1-2)Gal(b1-4)GlcNAc = target: Fuc(a1-2)Gal(b1-4)GlcNAc
# How it was run: as §1
# [20] = target: Fuc(a1-2)Gal(b1-4)GlcNAc(b1-2)Man
# How it was run: as §1
# [21] = target: Fuc(a1-2)Gal(b1-4)GlcNAc(b1-2)Man(a1-3)[Fuc(a1-2)Gal(b1-4)GlcNAc(b1-2)Man(a1-6)]Man(b1-4)GlcNAc(b1-4)GlcNAc
# How it was run: as §1
# [22] = target: Fuc(a1-2)Gal(b1-4)GlcNAc(b1-2)Man(a1-3)[Fuc(a1-2)Gal(b1-4)GlcNAc(b1-2)Man(a1-6)]Man(b1-4)GlcNAc(b1-4)[Fuc(a1-6)]GlcNAc
# How it was run: as §1
# [23] = target: Fuc(a1-2)Gal(b1-4)GlcNAc(b1-2)[Fuc(a1-2)Gal(b1-4)GlcNAc(b1-4)]Man(a1-3)[Fuc(a1-2)Gal(b1-4)GlcNAc(b1-2)Man(a1-6)]Man(b1-4)GlcNAc(b1-4)GlcNAc
# How it was run: as §1
# [24] = target: Fuc(a1-2)Gal(b1-4)GlcNAc(b1-3)Gal(b1-4)GlcNAc
# How it was run: as §1
binder,measurement,setting,value
MUB70 (Lactobacillus reuteri) (protein) CVHVQYIDGETDQMLRQDDLDGYTDETIPYSTAEGIKKFEGDGYELFKDNFPAGEKFDNDDTNDQFYTVIF,glycan array binding signal (z-score),Fuc(a1-2)Gal,0.151
same,glycan array binding signal (z-score),Fuc(a1-2)Gal(b1-3)GalNAc,-0.543
same,glycan array binding signal (z-score),[1],-0.708
same,glycan array binding signal (z-score),[2],0.081
same,glycan array binding signal (z-score),[3],0.156
same,glycan array binding signal (z-score),[4],-0.34
same,glycan array binding signal (z-score),[5],-0.592
same,glycan array binding signal (z-score),Fuc(a1-2)Gal(b1-3)GlcNAc,-0.448
same,glycan array binding signal (z-score),[6],-0.679
same,glycan array binding signal (z-score),[7],-0.229
same,glycan array binding signal (z-score),[8],-0.29
same,glycan array binding signal (z-score),[9],0.169
same,glycan array binding signal (z-score),[10],0.173
same,glycan array binding signal (z-score),[11],0.656
same,glycan array binding signal (z-score),[12],0.115
same,glycan array binding signal (z-score),[13],-0.415
same,glycan array binding signal (z-score),[14],0.563
same,glycan array binding signal (z-score),[15],-0.048
same,glycan array binding signal (z-score),[16],1.08
same,glycan array binding signal (z-score),[17],0.354
same,glycan array binding signal (z-score),[18],0.024
same,glycan array binding signal (z-score),[19],0.344
same,glycan array binding signal (z-score),Fuc(a1-2)Gal(b1-4)Glc,-0.898
same,glycan array binding signal (z-score),Fuc(a1-2)Gal(b1-4)Glc6S,-0.001
same,glycan array binding signal (z-score),Fuc(a1-2)Gal(b1-4)GlcNAc,-0.384
same,glycan array binding signal (z-score),[20],0.231
same,glycan array binding signal (z-score),[21],-0.781
same,glycan array binding signal (z-score),[22],-0.62
same,glycan array binding signal (z-score),[23],-0.532
same,glycan array binding signal (z-score),[24],-0.781

# 2 records drawn at random from those above, as already listed:
binder,measurement,setting,value
MUB70 (Lactobacillus reuteri) (protein) CVHVQYIDGETDQMLRQDDLDGYTDETIPYSTAEGIKKFEGDGYELFKDNFPAGEKFDNDDTNDQFYTVIF,glycan array binding signal (z-score),[16],1.08
same,glycan array binding signal (z-score),[14],0.563
